Results from the supplement of paper PMC10849652.
Some of the results follow.

Protein sequences, listed by entry. Tags and fused reporters are not part of them. Lines headed by an entry give the natural chain unless they say otherwise; changes in a name come on top.
UniProt Q8TDI8: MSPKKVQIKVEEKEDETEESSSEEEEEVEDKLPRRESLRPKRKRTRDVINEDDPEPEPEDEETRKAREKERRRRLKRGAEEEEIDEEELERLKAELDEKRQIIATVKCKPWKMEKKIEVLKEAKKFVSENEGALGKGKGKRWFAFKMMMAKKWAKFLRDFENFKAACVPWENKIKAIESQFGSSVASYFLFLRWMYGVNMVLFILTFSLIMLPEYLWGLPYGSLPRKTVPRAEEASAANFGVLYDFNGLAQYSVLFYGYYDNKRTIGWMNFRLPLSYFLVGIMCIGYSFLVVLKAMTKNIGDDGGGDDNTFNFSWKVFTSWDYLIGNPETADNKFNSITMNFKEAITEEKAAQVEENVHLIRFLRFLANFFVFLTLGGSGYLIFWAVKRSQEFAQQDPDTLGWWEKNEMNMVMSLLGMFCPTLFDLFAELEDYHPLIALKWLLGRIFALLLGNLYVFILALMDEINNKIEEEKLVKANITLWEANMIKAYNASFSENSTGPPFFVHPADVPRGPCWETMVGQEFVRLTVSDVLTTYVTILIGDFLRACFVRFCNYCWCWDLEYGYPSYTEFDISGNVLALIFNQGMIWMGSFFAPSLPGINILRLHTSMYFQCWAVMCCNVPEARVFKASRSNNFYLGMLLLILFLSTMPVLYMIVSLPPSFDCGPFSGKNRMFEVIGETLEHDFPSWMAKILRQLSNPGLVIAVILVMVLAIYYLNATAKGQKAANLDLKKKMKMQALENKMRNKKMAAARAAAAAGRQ
UniProt Q9BUB7: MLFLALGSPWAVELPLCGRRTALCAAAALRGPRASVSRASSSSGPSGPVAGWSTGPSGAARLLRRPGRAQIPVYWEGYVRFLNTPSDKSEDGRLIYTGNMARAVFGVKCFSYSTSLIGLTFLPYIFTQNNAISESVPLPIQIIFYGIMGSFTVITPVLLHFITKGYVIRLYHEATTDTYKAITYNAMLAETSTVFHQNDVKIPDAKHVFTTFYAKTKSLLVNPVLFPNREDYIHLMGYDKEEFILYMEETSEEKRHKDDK
UniProt Q8IY95: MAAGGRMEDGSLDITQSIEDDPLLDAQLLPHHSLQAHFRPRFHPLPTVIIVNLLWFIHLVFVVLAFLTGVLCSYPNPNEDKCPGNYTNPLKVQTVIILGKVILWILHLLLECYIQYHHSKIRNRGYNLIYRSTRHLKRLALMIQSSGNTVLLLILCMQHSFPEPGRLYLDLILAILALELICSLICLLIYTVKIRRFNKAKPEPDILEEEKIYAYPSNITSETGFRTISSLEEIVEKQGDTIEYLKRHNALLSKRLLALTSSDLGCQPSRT
UniProt Q86WV6: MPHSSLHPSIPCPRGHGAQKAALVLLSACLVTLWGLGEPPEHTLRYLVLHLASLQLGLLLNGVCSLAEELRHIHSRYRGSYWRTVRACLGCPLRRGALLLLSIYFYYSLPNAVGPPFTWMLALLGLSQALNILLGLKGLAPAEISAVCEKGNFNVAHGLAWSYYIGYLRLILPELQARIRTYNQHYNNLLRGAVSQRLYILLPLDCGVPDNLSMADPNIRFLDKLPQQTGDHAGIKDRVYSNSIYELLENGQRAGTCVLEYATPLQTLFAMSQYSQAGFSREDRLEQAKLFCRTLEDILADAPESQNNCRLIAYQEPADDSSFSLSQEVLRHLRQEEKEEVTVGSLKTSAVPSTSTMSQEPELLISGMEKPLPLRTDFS
UniProt Q96SK2: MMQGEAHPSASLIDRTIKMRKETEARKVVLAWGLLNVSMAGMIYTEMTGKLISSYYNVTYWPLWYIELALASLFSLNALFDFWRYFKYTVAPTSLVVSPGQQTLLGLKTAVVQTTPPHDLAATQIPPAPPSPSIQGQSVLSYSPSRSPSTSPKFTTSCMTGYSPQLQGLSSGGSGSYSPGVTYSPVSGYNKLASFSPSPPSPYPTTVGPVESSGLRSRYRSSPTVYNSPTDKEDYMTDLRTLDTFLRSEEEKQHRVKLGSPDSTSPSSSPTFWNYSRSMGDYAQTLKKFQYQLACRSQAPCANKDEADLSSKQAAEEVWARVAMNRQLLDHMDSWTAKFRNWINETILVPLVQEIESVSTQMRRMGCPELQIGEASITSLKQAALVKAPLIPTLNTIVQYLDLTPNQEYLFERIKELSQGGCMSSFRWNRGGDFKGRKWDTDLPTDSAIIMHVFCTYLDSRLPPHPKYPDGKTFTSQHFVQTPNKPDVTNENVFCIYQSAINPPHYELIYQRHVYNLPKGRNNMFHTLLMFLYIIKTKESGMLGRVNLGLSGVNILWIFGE
UniProt Q9NWD8: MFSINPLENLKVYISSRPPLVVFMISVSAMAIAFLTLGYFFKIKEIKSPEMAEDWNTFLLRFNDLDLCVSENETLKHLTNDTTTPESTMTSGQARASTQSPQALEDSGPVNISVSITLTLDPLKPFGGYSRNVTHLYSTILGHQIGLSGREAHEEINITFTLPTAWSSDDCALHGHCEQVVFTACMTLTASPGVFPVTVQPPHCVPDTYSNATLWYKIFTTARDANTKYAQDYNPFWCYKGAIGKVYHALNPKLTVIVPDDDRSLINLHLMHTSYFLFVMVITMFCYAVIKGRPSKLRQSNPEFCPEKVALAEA
UniProt P42166: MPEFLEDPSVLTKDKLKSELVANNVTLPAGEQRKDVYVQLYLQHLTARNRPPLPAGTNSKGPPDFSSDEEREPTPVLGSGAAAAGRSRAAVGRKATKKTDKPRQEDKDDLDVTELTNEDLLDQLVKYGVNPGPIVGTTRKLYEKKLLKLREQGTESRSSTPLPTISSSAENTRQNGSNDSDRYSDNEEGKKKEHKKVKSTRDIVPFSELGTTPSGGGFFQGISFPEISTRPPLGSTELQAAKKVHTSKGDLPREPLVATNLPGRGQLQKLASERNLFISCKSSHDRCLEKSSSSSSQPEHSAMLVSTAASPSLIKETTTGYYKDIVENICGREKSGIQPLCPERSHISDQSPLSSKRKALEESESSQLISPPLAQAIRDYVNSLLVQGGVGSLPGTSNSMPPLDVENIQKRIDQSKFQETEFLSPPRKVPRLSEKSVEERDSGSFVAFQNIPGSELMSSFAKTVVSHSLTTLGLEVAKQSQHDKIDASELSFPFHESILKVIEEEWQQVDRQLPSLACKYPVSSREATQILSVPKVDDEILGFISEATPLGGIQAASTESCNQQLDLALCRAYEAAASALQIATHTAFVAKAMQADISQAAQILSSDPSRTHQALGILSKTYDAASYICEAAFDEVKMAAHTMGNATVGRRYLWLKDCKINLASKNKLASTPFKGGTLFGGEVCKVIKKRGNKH
UniProt Q4ZIN3: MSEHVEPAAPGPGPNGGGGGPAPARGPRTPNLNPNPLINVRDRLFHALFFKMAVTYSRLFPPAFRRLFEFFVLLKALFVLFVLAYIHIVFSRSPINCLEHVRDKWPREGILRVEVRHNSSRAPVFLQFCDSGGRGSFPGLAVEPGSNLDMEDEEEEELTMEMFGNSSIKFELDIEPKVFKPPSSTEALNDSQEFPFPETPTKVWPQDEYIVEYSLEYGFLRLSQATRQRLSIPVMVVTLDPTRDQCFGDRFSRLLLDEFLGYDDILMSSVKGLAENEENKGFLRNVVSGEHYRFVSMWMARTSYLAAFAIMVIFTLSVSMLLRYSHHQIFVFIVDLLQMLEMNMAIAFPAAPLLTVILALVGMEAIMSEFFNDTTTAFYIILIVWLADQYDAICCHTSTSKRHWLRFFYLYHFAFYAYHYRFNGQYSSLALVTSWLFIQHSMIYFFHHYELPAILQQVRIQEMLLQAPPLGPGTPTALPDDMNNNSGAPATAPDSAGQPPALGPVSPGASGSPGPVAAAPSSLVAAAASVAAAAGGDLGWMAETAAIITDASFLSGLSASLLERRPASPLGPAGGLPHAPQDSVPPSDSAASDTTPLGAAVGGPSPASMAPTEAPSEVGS
UniProt Q5U3C3: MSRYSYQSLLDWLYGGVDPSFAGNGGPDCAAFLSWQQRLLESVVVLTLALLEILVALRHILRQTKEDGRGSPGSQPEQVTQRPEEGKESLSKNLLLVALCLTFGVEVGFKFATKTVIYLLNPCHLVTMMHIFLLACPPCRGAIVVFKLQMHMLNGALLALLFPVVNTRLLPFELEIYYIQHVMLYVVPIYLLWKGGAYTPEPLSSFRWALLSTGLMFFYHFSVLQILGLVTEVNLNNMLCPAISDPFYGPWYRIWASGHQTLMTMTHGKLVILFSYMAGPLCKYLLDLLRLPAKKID
UniProt Q8IUX1: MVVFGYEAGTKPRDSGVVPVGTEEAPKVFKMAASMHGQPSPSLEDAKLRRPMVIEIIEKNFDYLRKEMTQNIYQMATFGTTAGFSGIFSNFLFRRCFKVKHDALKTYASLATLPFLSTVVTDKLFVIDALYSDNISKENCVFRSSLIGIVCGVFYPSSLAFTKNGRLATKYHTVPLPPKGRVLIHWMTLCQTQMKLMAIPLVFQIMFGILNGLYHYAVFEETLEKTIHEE
UniProt Q9BVT8: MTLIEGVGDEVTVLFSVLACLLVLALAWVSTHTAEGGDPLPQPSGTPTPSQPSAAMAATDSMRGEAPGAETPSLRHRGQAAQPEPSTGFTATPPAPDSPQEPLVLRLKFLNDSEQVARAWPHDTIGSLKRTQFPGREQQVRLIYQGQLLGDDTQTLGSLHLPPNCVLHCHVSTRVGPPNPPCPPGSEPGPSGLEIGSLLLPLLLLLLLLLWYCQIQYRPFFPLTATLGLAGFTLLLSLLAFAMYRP
UniProt Q92544: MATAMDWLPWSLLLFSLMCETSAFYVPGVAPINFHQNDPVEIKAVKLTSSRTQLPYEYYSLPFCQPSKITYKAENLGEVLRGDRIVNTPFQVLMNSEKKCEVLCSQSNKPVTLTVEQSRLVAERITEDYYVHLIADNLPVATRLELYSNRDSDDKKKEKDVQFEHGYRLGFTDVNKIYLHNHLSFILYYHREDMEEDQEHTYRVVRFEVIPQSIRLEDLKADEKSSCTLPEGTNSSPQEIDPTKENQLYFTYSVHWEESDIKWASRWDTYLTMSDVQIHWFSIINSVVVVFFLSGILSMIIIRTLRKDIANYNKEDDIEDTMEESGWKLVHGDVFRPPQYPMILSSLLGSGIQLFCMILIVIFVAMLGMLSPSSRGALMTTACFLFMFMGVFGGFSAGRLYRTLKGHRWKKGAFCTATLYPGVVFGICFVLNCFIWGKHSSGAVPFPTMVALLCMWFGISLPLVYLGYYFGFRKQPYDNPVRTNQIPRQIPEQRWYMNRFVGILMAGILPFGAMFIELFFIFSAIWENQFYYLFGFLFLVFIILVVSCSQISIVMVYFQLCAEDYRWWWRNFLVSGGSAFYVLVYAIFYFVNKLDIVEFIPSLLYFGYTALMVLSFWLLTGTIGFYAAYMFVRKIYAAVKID
UniProt Q96HV5: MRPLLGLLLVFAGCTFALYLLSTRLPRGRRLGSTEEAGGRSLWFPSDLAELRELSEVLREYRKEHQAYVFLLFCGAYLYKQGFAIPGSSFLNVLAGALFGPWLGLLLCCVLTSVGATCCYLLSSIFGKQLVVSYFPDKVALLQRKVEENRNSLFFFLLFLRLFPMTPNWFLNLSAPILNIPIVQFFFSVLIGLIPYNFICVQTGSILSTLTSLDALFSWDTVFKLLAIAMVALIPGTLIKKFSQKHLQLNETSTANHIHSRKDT
UniProt Q8TBQ9: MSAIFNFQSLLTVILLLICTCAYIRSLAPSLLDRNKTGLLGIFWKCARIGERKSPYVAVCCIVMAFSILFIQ
UniProt O00220, whole entry, looked up: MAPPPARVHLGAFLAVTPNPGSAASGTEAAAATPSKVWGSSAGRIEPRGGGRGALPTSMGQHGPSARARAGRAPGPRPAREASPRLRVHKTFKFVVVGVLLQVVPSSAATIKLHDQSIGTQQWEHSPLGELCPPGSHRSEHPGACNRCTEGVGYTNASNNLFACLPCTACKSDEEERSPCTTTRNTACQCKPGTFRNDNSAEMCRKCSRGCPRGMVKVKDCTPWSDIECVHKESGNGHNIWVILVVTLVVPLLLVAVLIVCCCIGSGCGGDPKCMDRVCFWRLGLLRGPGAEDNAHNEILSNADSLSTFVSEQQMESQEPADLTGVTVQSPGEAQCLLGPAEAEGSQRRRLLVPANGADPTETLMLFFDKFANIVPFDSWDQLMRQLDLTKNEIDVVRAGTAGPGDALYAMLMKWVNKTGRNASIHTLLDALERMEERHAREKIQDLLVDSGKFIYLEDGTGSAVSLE
UniProt Q71RG4: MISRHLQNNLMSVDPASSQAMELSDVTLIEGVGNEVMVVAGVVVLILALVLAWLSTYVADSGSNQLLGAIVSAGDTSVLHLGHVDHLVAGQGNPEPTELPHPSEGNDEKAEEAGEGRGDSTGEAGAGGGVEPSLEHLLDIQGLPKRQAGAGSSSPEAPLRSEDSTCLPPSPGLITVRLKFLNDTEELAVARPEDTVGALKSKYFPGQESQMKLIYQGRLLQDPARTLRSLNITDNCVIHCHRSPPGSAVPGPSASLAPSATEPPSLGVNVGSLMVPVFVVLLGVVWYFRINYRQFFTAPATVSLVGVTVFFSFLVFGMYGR
UniProt P17152: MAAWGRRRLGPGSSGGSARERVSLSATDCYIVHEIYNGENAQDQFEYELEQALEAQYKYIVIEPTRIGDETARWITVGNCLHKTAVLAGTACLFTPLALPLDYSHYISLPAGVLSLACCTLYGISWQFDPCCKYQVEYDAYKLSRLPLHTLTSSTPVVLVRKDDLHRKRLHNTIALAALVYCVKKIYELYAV

Experiments:
Experiment in all cases: log2 fold change, soluble protein after heating vs DMSO (PISA); higher = thermal stabilisation; K562 cells, 10 uM, 30 min; active = over 0.2 and 3.5 SD of the protein, either way, in both replicates (recomputed)
[1] = compound: NC(=O)Nc1cc(-c2cccc(F)c2)sc1C(=O)N[C@H]1CCCNC1
Method in brief: (§1)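 K562 cells at 2×10^6 cells/mL were given 10 μM compound for 30 min. Aliquots then went through 3 min of heating across 48°C-58°C, were pooled, and were extracted in PBS with 0.5% NP-40 at 4°C, and the supernatant after 21,000xg for 90 min was quantified by TMTpro 16plex LC-MS/MS with channel sums equalised. Thermal stability relative to control samples, from duplicates, is given as log2 fold change.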

[2] = compound: NC(=O)c1cnc(N[C@@H]2CCCC[C@@H]2N)nc1Nc1cccc(-n2nccn2)c1
Method in brief: as §1

[3] = compound: NC1(c2ccc(-c3nc4ccn5c(=O)[nH]nc5c4cc3-c3ccccc3)cc2)CCC1
Method in brief: as §1

[4] = compound: NCC(=O)Nc1ccc(-n2nc(C(F)(F)F)cc2-c2ccc3c(ccc4ccccc43)c2)cc1
Method in brief: as §1

entinostat = compound: Nc1ccccc1NC(=O)c1ccc(CNC(=O)OCc2cccnc2)cc1 [entinostat]
Method in brief: as §1

vorinostat = compound: O=C(CCCCCCC(=O)Nc1ccccc1)NO [vorinostat]
Method in brief: as §1

citarinostat = compound: O=C(CCCCCCNC(=O)c1cnc(N(c2ccccc2)c2ccccc2Cl)nc1)NO [citarinostat]
Method in brief: as §1

silmitasertib = compound: O=C(O)c1ccc2c(c1)nc(Nc1cccc(Cl)c1)c1ccncc12 [silmitasertib]
Method in brief: as §1

[5] = compound: O=C1NC(=O)C(c2cnc3ccccn23)=C1c1cn2c3c(cc(F)cc13)CN(C(=O)N1CCCCC1)CC2
Method in brief: as §1

[6] = compound: c1cc(OCCN2CCCCC2)cc(-c2n[nH]c3ccc(-c4nnc[nH]4)cc23)c1
Method in brief: as §1

Measured: log2 fold change

TM9SF2 (UniProt Q99805)
inactive: [1] 0.026 | [2] 0.006 | [3] -0.138 | [4] -0.022 | entinostat -0.006 | vorinostat 0.006 | citarinostat -0.003 | silmitasertib 0.002 | [5] -0.057 | [6] -0.062

TMEM135 (UniProt Q86UB9)
inactive: [1] -0.029 | [2] -0.06 | [3] -0.051 | [4] 0.044 | entinostat -0.025 | vorinostat -0.073 | citarinostat -0.02 | silmitasertib 0.02 | [5] -0.025 | [6] -0.122

TMBIM1 (UniProt Q969X1)
inactive: [1] 0.079 | [2] -0.229 | [3] -0.008 | [4] -0.259 | entinostat 0.062 | vorinostat -0.034 | citarinostat -0.208 | silmitasertib 0.067 | [5] -0.149 | [6] 0.021

TMC1 (UniProt Q8TDI8)
inactive: [1] -0.089 | [2] -0.195 | [3] -0.325 | [4] -0.179 | entinostat 0.017 | vorinostat 0.026 | citarinostat -0.078 | silmitasertib 0.214 | [5] 0.019 | [6] -0.377

TMEM97 (UniProt Q5BJF2)
inactive: [1] -0.058 | [2] -0.02 | [3] -0.017 | [4] 0.001 | entinostat -0.008 | vorinostat -0.068 | citarinostat -0.054 | silmitasertib 0.032 | [5] 0.003 | [6] 0.026

TMEM70 (UniProt Q9BUB7)
inactive: [1] -0.058 | [2] -0.125 | [3] -0.162 | [4] -0.137 | entinostat 0.005 | vorinostat 0.031 | citarinostat 0.047 | silmitasertib 0.019 | [5] -0.045 | [6] -0.003

TMEM192 (UniProt Q8IY95)
inactive: [1] 0 | [2] -0.01 | [4] 0.01 | entinostat -0.017 | vorinostat -0.061 | citarinostat -0.02 | silmitasertib 0.037 | [5] 0.03 | [6] -0.005
active: [3] -0.374

TMEM173 (UniProt Q86WV6)
inactive: [1] 0.002 | [2] -0.041 | [3] -0.078 | [4] -0.06 | entinostat 0.032 | vorinostat -0.09 | citarinostat -0.028 | silmitasertib -0.041 | [5] 0.035 | [6] 0.006

TMEM209 (UniProt Q96SK2)
inactive: [1] 0.01 | [2] 0 | [3] -0.012 | [4] -0.048 | entinostat 0.037 | vorinostat 0.03 | citarinostat 0.004 | silmitasertib 0.017 | [5] 0.038 | [6] -0.05

TMEM248 (UniProt Q9NWD8)
inactive: [1] -0.099 | [2] -0.054 | [3] 0.002 | [4] -0.051 | entinostat -0.043 | vorinostat -0.059 | citarinostat 0.051 | silmitasertib -0.038 | [5] 0.076 | [6] -0.112

TMPO (UniProt P42166)
inactive: [1] -0.043 | [2] -0.088 | [3] -0.139 | [4] -0.054 | entinostat 0.075 | vorinostat 0.123 | citarinostat 0.072 | silmitasertib 0.078 | [5] -0.128 | [6] 0.001

TNFRSF10B (UniProt O14763)
inactive: [1] -0.039 | [2] -0.078 | [3] 0.034 | [4] -0.086 | entinostat -0.041 | vorinostat -0.081 | citarinostat 0.044 | silmitasertib -0.052 | [5] 0.049 | [6] -0.002

TMEM259 (UniProt Q4ZIN3)
inactive: [1] -0.014 | [2] -0.046 | [3] -0.035 | [4] -0.018 | entinostat 0.009 | vorinostat 0.047 | citarinostat 0.021 | silmitasertib 0.05 | [5] 0.031 | [6] -0.005

TMEM164 (UniProt Q5U3C3)
inactive: [1] 0.129 | [2] -0.138 | [3] -0.006 | [4] -0.248 | entinostat -0.112 | vorinostat 0.139 | citarinostat 0.087 | silmitasertib 0.01 | [5] -0.004 | [6] -0.268

TMEM126B (UniProt Q8IUX1)
inactive: [1] 0.022 | [2] 0.005 | [3] -0.007 | [4] 0.055 | entinostat 0.023 | vorinostat 0.058 | citarinostat -0.131 | silmitasertib 0 | [5] 0 | [6] 0.029

Pulled one by one from above, two records:
TNFRSF10B (UniProt O14763)
inactive: [1] -0.039 | [2] -0.078 | [3] 0.034 | [4] -0.086 | entinostat -0.041 | vorinostat -0.081 | citarinostat 0.044 | silmitasertib -0.052 | [5] 0.049 | [6] -0.002

TMEM97 (UniProt Q5BJF2)
inactive: [1] -0.058 | [2] -0.02 | [3] -0.017 | [4] 0.001 | entinostat -0.008 | vorinostat -0.068 | citarinostat -0.054 | silmitasertib 0.032 | [5] 0.003 | [6] 0.026

The list continues:

TMUB1 (UniProt Q9BVT8)
inactive: [1] 0.107 | [2] 0.057 | [3] -0.004 | [4] 0.044 | entinostat 0.006 | vorinostat 0.013 | citarinostat 0.038 | silmitasertib -0.073 | [5] 0.205 | [6] -0.071

TM9SF4 (UniProt Q92544)
inactive: [1] 0.024 | [2] 0.064 | [3] -0.061 | [4] 0.032 | entinostat -0.01 | vorinostat 0.146 | citarinostat 0.044 | silmitasertib 0.03 | [5] -0.011 | [6] -0.057

TMEM41A (UniProt Q96HV5)
inactive: [1] -0.005 | [2] -0.053 | [3] 0.002 | [4] -0.066 | entinostat -0.027 | vorinostat 0.09 | citarinostat 0.04 | silmitasertib -0.015 | [5] -0.018 | [6] -0.059

TMEM167A (UniProt Q8TBQ9)
inactive: [1] 0.019 | [2] -0.015 | [3] 0.005 | [4] -0.001 | entinostat 0.006 | vorinostat -0.037 | citarinostat 0.033 | silmitasertib 0.006 | [5] 0.013 | [6] -0.1

TNFRSF10A (UniProt O00220)
inactive: [1] -0.097 | [2] -0.019 | [3] 0.06 | [4] 0.029 | entinostat -0.202 | vorinostat -0.178 | citarinostat -0.011 | silmitasertib 0.028 | [5] -0.069 | [6] -0.07

TMUB2 (UniProt Q71RG4)
inactive: [1] 0.061 | [2] 0.059 | [3] 0 | [4] -0.007 | entinostat -0.028 | vorinostat -0.11 | citarinostat 0.003 | silmitasertib -0.065 | [5] -0.047 | [6] -0.047

TMEM141 (UniProt Q96I45)
inactive: [1] -0.046 | [2] -0.012 | [3] 0.043 | [4] -0.108 | entinostat -0.089 | vorinostat 0.021 | citarinostat 0.013 | silmitasertib 0.051 | [6] 0.09

TMEM186 (UniProt Q96B77)
inactive: [1] -0.052 | [2] -0.044 | [3] -0.065 | [4] -0.067 | entinostat -0.136 | citarinostat 0.117 | silmitasertib 0.041 | [5] 0.099 | [6] -0.072

TMEM189-UBE2V1 (UniProt I3L0A0)
inactive: [1] 0.06 | [2] -0.018 | [3] -0.063 | [4] -0.018 | entinostat -0.097 | vorinostat 0.005 | citarinostat 0.046 | silmitasertib -0.058 | [5] 0.009 | [6] -0.016

TMEM167B (UniProt Q9NRX6)
inactive: [1] -0.011 | [3] 0.023 | [4] -0.018 | entinostat -0.005 | vorinostat -0.079 | citarinostat 0.003 | silmitasertib 0.085 | [6] -0.126

TMEM230 isoform 2 (UniProt Q96A57)
inactive: [1] 0.003 | [2] 0.024 | [3] 0.007 | [4] 0.123 | entinostat -0.024 | vorinostat -0.008 | citarinostat -0.014 | silmitasertib 0.024 | [5] -0.045 | [6] -0.043

TMEM11 (UniProt P17152)
inactive: [1] -0.038 | [2] 0.022 | [3] -0.096 | [4] -0.026 | entinostat -0.012 | vorinostat -0.007 | citarinostat -0.059 | silmitasertib 0.018 | [5] -0.02 | [6] -0.035
